From patent publication US20120039878A1

Molecular target: Vλ6 monomer
Assay: SPR (BIAcore), Vλ6 monomer immobilized on a chip

B1: murine monoclonal antibody 7D8 (ATCC Accession Number PTA-9468) (antibody, mouse IgG2b, V domains shown)
VH: EVQLVESGGRLVQPKGSLKLSCAASGFTFNTYAMYWIRQAPGKGLEWVARIRSKSNNYAIYYADSVKDRFTIFRDDSQSMLYLQMNNLKTEDTAMYYCVRPYSDSFAYWGQGTLVTVSA
VL: DVVMTQTPLSLPVSLGDQASISCRSSLSLVHSTGNTYLHWYLQKPGQSPKLLIYKVSNRFSGVPDRFSGSGSGTYFTLKISRVEAEDLGVYFCSQSTHVPFTFGGGTKLEIK
- binding: no binding

No constants are given. Whether binding was seen depends on the method and setting.
